Results from US20090306228A1, “ACTIVE AGENT DELIVERY SYSTEMS AND METHODS FOR PROTECTING AND ADMINISTERING ACTIVE AGENTS” (priority 2000, published 2009).

Experiment: in vivo
Conditions: female, Sprague Dawley, rat, po

NS(=O)(=O)c1cc(C(=O)O)c(NCc2ccco2)cc1Cl [Furosemide]
AUC: 21200 ng·h/mL
